From PubChem BioAssay AID1508600 (Functional Genomics Laboratory (NCATS/FGL), 2020)
About 3,700 (7%) of roughly 53,000 sequences were called active.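 Rule for the calls: active = gene knockdowns whose robust z-score for IL-1 alpha signal is at least 2 or at most -2, so actives lie on both sides; inactive = the rest.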 Some of the results follow.

Test: Components of the Cytosolic LPS Sensing Pathway: Gene Identification via Genome-wide siRNA Screen;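 note: robust z of the log signal after scaling to non-targeting control siRNA wells of the plate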
Conditions: RAW264.7 macrophages, IL-1a HTRF, actives lie on both sides, screened at 100 nM (by protocol), cells primed 5 h with Pam3CSK4 first
Procedure, shortened: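 Supernatant IL-1a by HTRF from RAW264.7 cells primed with Pam3CSK4 (5 hours) and transfected with LipidA (24 hour) after 48h siRNA knockdown at 100 nM; cell viability checked with CellTiter-Glo.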

| Sequence | z-score |
| --- | --- |
| GGAACAAAGUGUCAGAGGATT against Hcls1 | inactive: -0.198 |
| GGCAGAUACUUCUCUGGAGTT against Sdc4 | inactive: -0.498 |
| GGAAGGACUCCUGUACAUCTT against Cyp4f18 | inactive: -0.398 |
| GGUCCAAGCCUUAAUAUAUTT against Aadac | inactive: 0.486 |
| CGACAUGGAACACAAGACCTT against Map3k11 | inactive: 0.289 |
| GGUGUAUGUGCUGAAGCGATT against Ctdspl | inactive: -0.526 |
| GGAACUUCAGUGUUGCCUCTT against Olfr257 | inactive: 0.0752 |
| CCUUCCGCCUAUCCUAUUGTT against Olfr52 | inactive: 0.791 |
| GGUGACAUCUUCAUUGGCCTT against Actr1a | inactive: 1.13 |
| GGGAAGAGAAAACUGGACUTT against Xrcc1 | active: 3.01 |
| GCUGCCGAUUGAUAGCUUCTT against Pik3ca | inactive: 0.248 |
| GCCCAAUAAAAUUGAAGGGTT against Pmis2 | inactive: -0.163 |
| GGUGUUUGAUGUAACUAAATT against Dgke | inactive: -0.424 |
| GAGUGGUUUCUAAUUCGUATT against A830031A19Rik | active: 2.56 |
| GGACGGUAGCCAUAUUAAUTT against Spink2 | inactive: -0.385 |
| GCCGAUUUGCUAUCUCAUATT against Tnf | inactive: -1.12 |
| CUAAUGUCUGUGGUCAAAUTT against Trim6 | inactive: -0.0124 |
| GCAACCUGCUAUUGGCACUTT against Tm6sf2 | inactive: 0.803 |
| GGAUGAGGCACAGUUGUGUTT against Trim10 | inactive: 0.131 |
| GGUUAAGUUACUAACCCAGTT against 4931406C07Rik | inactive: 1.01 |
| GGAUAAACAUCAUCUAUGGTT against Olfr603 | inactive: -1.7 |
| GGAAUAUGAGAAAAUGAGCTT against Ctsc | inactive: 0.239 |
| GCAACAGAAGAUAACUCAATT against Dnajc28 | inactive: 1.07 |
| CGAACAGAGUCUAAUCUCATT against Ptpn1 | inactive: 1.69 |
| GGCUUUGAAAGUUACUACUTT against Zfp609 | inactive: 1.22 |
| CGAGUGCAUGAAAUCUUCATT against Polr2a | inactive: -1.82 |
| GCUCUAGAAGCGUACAGGCTT against Pole3 | inactive: -0.492 |
| GGGCAAACAACAUCGAUGGTT against Wdsub1 | inactive: -1.76 |
| GGCUCCAUCGAAAGGUAAATT against Lyar | inactive: -0.803 |

As a working copy, some entries already given.

| Sequence | z-score |
| --- | --- |
| GGAACAAAGUGUCAGAGGATT against Hcls1 | inactive: -0.198 |
| GGCAGAUACUUCUCUGGAGTT against Sdc4 | inactive: -0.498 |
| GGAAGGACUCCUGUACAUCTT against Cyp4f18 | inactive: -0.398 |
| GGUCCAAGCCUUAAUAUAUTT against Aadac | inactive: 0.486 |
| CGACAUGGAACACAAGACCTT against Map3k11 | inactive: 0.289 |
| GGUGUAUGUGCUGAAGCGATT against Ctdspl | inactive: -0.526 |
| GGAACUUCAGUGUUGCCUCTT against Olfr257 | inactive: 0.0752 |
| CCUUCCGCCUAUCCUAUUGTT against Olfr52 | inactive: 0.791 |
